From paper PMC11956869
Results are given in words; binding and its absence hold for the method and conditions named. For part of these data: In cells and extracts the contact can be indirect. Some binding calls cover weakened binding; strength is not graded here. For part of these data: Tags and fused reporters may be left off the sequences shown. Blank lines part the entries; values can stand above or below the binder they belong to.

Legend:
[1] = molecular target: T1, 6xHis-Mer-CFP (Mer-mTurquoise2) recombinant protein (Drosophila) (UniProt Q24564); experiment: in vitro phase separation assay, enrichment in condensates seen by confocal microscopy; 0.3 uM purified Sav/mScarlet-Hpo complex added 2 h after induction of Mer-CFP condensation (0.3 uM Mer-CFP, 150 mM NaCl); imaged 30 min later; both purified
T1 sequence: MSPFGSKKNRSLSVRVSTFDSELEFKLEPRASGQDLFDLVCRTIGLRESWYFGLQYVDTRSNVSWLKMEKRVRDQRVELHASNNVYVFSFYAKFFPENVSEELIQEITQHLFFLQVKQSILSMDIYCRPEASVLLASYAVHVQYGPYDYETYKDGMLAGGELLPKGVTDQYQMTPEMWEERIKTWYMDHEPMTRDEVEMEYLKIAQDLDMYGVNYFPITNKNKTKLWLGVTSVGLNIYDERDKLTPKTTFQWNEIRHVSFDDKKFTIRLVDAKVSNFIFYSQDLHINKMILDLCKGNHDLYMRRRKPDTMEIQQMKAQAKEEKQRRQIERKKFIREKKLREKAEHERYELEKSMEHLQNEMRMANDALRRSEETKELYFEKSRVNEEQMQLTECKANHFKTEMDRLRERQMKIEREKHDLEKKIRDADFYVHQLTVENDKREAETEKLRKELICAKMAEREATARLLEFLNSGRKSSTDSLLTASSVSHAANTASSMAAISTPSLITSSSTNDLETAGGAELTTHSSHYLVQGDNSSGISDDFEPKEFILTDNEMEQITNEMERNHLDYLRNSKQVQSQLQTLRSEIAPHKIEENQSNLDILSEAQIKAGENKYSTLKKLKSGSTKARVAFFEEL

[2] = molecular target: T2, 6xHis-Sav (co-expressed with mScarlet-Hpo) (Drosophila) (UniProt Q9VCR6); experiment: co-purification on Ni-NTA; 6xHis-Sav and mScarlet-Hpo co-expressed in E. coli BL21(DE3); lysate in 50 mM Tris-HCl pH 7.5, 500 mM NaCl, 5 mM imidazole, 1 mM DTT on Ni-NTA agarose, washed with 50 mM imidazole, eluted with 150 mM imidazole
T2 sequence: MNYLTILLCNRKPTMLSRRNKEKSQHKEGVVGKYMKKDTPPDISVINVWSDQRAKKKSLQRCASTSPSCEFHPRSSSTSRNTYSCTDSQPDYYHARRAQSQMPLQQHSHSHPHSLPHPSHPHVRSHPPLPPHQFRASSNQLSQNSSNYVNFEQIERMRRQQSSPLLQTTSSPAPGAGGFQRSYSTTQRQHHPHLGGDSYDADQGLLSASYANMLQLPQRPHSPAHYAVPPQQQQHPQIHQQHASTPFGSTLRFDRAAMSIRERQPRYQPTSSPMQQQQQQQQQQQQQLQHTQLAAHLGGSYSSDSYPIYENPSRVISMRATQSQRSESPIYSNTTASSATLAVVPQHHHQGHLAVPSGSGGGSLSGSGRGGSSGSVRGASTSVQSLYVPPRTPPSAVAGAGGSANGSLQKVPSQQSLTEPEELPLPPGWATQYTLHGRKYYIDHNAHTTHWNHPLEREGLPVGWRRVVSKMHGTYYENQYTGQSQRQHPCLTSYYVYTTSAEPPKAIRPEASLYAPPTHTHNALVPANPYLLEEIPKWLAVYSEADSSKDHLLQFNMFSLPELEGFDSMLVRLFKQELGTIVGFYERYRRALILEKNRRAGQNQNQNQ

[3] = molecular target: Merlin (Mer), full length, expressed in S2R+ cells (Drosophila) (UniProt Q24564); experiment: cross-linking; intact transfected S2R+ cells in PBS pH 8.0, 0.05 mM disuccinimidyl suberate (DSS), room temperature 30 min, quenched with 20 mM Tris-HCl pH 7.5, western blot

binding [1]: binds
B1: 6xHis-Sav/mScarlet-Hpo protein complex (complex, UniProt Q9VCR6 1-608; Q8T0S6 1-669)
chain 1: MNYLTILLCNRKPTMLSRRNKEKSQHKEGVVGKYMKKDTPPDISVINVWSDQRAKKKSLQRCASTSPSCEFHPRSSSTSRNTYSCTDSQPDYYHARRAQSQMPLQQHSHSHPHSLPHPSHPHVRSHPPLPPHQFRASSNQLSQNSSNYVNFEQIERMRRQQSSPLLQTTSSPAPGAGGFQRSYSTTQRQHHPHLGGDSYDADQGLLSASYANMLQLPQRPHSPAHYAVPPQQQQHPQIHQQHASTPFGSTLRFDRAAMSIRERQPRYQPTSSPMQQQQQQQQQQQQQLQHTQLAAHLGGSYSSDSYPIYENPSRVISMRATQSQRSESPIYSNTTASSATLAVVPQHHHQGHLAVPSGSGGGSLSGSGRGGSSGSVRGASTSVQSLYVPPRTPPSAVAGAGGSANGSLQKVPSQQSLTEPEELPLPPGWATQYTLHGRKYYIDHNAHTTHWNHPLEREGLPVGWRRVVSKMHGTYYENQYTGQSQRQHPCLTSYYVYTTSAEPPKAIRPEASLYAPPTHTHNALVPANPYLLEEIPKWLAVYSEADSSKDHLLQFNMFSLPELEGFDSMLVRLFKQELGTIVGFYERYRRALILEKNRRAGQNQNQNQ
chain 2: MSEPEVTSVVDMKSPNISSSCSFFKLKKLSEESLLQPPEKVFDIMYKLGEGSYGSVYKAVHKESSSIVAIKLVPVESDLHEIIKEISIMQQCDSPYVVRYYGSYFKQYDLWICMEYCGAGSVSDIMRLRKKTLTEDEIATILSDTLQGLVYLHLRRKIHRDIKAANILLNTEGYAKLADFGVAGQLTDTMAKRNTVIGTPFWMAPEVIEEIGYDCVADIWSLGITALEMAEGKPPYGEIHPMRAIFMIPQKPPPSFREPDRWSTEFIDFVSKCLVKEPDDRATATELLEHEFIRNAKHRSILKPMLEETCAIREQQRANRSFGGVLAASQAKSLATQENGMQQHITDNAFMEDPGTLVPEKFGEYQQSSASDATMIAHAEQGVDEGTLGPGGLRNLSKAAAPAAASSAASPLDMPAVDSGTMVELESNLGTMVINSDSDDSTTAKNNDDQKPRNRYRPQFLEHFDRKNAGDGRGDEKPIATEYSPAAAEQQQQQQQQQQQQQQDEQHLASGANDLNNWEHNMEMQFQQISAINQYGLQQHQQQQQVLMAYPLMNEQLIALNNQPNLLLSNAAPMGQQGIPAAAPAQPPPAYQNQHMHTQSHAYVEGEFEFLKFLTFDDLNQRLCNIDHEMELEIEQLNKKYNAKRQPIVDAMNAKRKRQQNINNNLIKI

binding [2]: binds
B2: mScarlet-Hpo (co-expressed with 6xHis-Sav) (protein, UniProt Q8T0S6 1-669)
chain: MSEPEVTSVVDMKSPNISSSCSFFKLKKLSEESLLQPPEKVFDIMYKLGEGSYGSVYKAVHKESSSIVAIKLVPVESDLHEIIKEISIMQQCDSPYVVRYYGSYFKQYDLWICMEYCGAGSVSDIMRLRKKTLTEDEIATILSDTLQGLVYLHLRRKIHRDIKAANILLNTEGYAKLADFGVAGQLTDTMAKRNTVIGTPFWMAPEVIEEIGYDCVADIWSLGITALEMAEGKPPYGEIHPMRAIFMIPQKPPPSFREPDRWSTEFIDFVSKCLVKEPDDRATATELLEHEFIRNAKHRSILKPMLEETCAIREQQRANRSFGGVLAASQAKSLATQENGMQQHITDNAFMEDPGTLVPEKFGEYQQSSASDATMIAHAEQGVDEGTLGPGGLRNLSKAAAPAAASSAASPLDMPAVDSGTMVELESNLGTMVINSDSDDSTTAKNNDDQKPRNRYRPQFLEHFDRKNAGDGRGDEKPIATEYSPAAAEQQQQQQQQQQQQQQDEQHLASGANDLNNWEHNMEMQFQQISAINQYGLQQHQQQQQVLMAYPLMNEQLIALNNQPNLLLSNAAPMGQQGIPAAAPAQPPPAYQNQHMHTQSHAYVEGEFEFLKFLTFDDLNQRLCNIDHEMELEIEQLNKKYNAKRQPIVDAMNAKRKRQQNINNNLIKI

binding [3]: binds
B3: Merlin (Mer), full length, expressed in S2R+ cells (protein, UniProt Q24564 1-635)
chain: MSPFGSKKNRSLSVRVSTFDSELEFKLEPRASGQDLFDLVCRTIGLRESWYFGLQYVDTRSNVSWLKMEKRVRDQRVELHASNNVYVFSFYAKFFPENVSEELIQEITQHLFFLQVKQSILSMDIYCRPEASVLLASYAVHVQYGPYDYETYKDGMLAGGELLPKGVTDQYQMTPEMWEERIKTWYMDHEPMTRDEVEMEYLKIAQDLDMYGVNYFPITNKNKTKLWLGVTSVGLNIYDERDKLTPKTTFQWNEIRHVSFDDKKFTIRLVDAKVSNFIFYSQDLHINKMILDLCKGNHDLYMRRRKPDTMEIQQMKAQAKEEKQRRQIERKKFIREKKLREKAEHERYELEKSMEHLQNEMRMANDALRRSEETKELYFEKSRVNEEQMQLTECKANHFKTEMDRLRERQMKIEREKHDLEKKIRDADFYVHQLTVENDKREAETEKLRKELICAKMAEREATARLLEFLNSGRKSSTDSLLTASSVSHAANTASSMAAISTPSLITSSSTNDLETAGGAELTTHSSHYLVQGDNSSGISDDFEPKEFILTDNEMEQITNEMERNHLDYLRNSKQVQSQLQTLRSEIAPHKIEENQSNLDILSEAQIKAGENKYSTLKKLKSGSTKARVAFFEEL
